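Viability assay of Plasmodium falciparum sporozoites; the read-out is not stated. The concentration is filed as 10 mM, unlikely as a test dose, so the dose is not known. Higher reads as lower viability (inferred: compounds with an IC50 in retests scored well above the rest). Strong results were mostly tested again. Size under these conditions: about 34,000 compounds, about 280 of them at 50% or above in at least one test.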

Each number is a percent effect as filed.
How 0% and 100% were set is not recorded. Most values in the screen are low, and negative values occur.
This is an unselected part of the compounds tested.
Two or more numbers in one place are separate tests of the same structure; such repeats can differ widely.

{"smiles": "CC(C)c1cnc(CN(C)C2CCN(CCc3cnn(C)c3)C2)o1", "stereo": "stereo not drawn", "percent effect": 3.746}
{"smiles": "Cc1cn(Cc2ccccc2)nc1N", "percent effect": "4.306 & -5.062 & -8.367"}
{"smiles": "CCc1nnsc1C(=O)N1CCCN(Cc2ccccc2)CC1", "percent effect": -9.142}
{"smiles": "Cc1nc(NCCC23CCCN2CCC3)cc(C2CCNCC2)n1", "percent effect": 0.3509}
{"smiles": "O=C(O)C(F)(F)F.[H][C@@]12CCCO[C@]1([H])[C@H](N(C)C)CN2C(=O)Cc1ccc(F)cc1", "percent effect": 0.3503}
{"smiles": "Cc1nc(CNC(=O)NCC(O)c2ccc(F)cc2)cs1", "stereo": "stereo not drawn", "percent effect": "-18.84 & 11.04 & -11.43"}
{"smiles": "CCCC(=O)N1CCN(CC(O)COCC)CC1", "stereo": "stereo not drawn", "percent effect": -3.928}
{"smiles": "CCN(C)S(=O)(=O)N1CCCC(CO)(CC=C(C)C)C1", "stereo": "stereo not drawn", "percent effect": -4.788}
{"smiles": "COc1ccc(C(C(=O)O)N2CCCN(C3CCCC3)CC2)cc1OC", "stereo": "stereo not drawn", "percent effect": -0.692}
{"smiles": "Cc1ccc(-c2nc(CCNC(=O)NC3CCC(O)CC3)co2)cc1", "stereo": "stereo not drawn", "percent effect": -18.27}
{"smiles": "Cc1nc(CN(C)C2CCN(Cc3nnc(C4CC4)o3)C2)no1", "stereo": "stereo not drawn", "percent effect": -2.228}
{"smiles": "[H][C@]12CC[C@]([H])(CN(CC(=O)N(C)C)C1)N(C(=O)CCn1cc(C)cn1)C2", "percent effect": -10.71}
{"smiles": "O=C(O)C(F)(F)F.O=C(O)C(F)(F)F.[H][C@@]12COC[C@]1([H])[C@H](OCc1ccccn1)CN2Cc1ccc(OC)cc1", "percent effect": -9.371}
{"smiles": "CCCS(=O)(=O)CCN1CCN(C(C#N)c2ccccc2)CC1", "stereo": "stereo not drawn", "percent effect": -7.051}
{"smiles": "CN1CCC(NC(=O)c2cc(C3CCCCC3)nc3ccccc23)CC1", "percent effect": -1.908}
{"smiles": "CCn1nc(C)c(CN2CCC(c3ccn[nH]3)C2)c1C", "stereo": "stereo not drawn", "percent effect": 0.8244}
{"smiles": "Cc1nccc(N2CCCC(C)(C(=O)NC3CCCC3)C2)n1", "stereo": "stereo not drawn", "percent effect": 2.213}
{"smiles": "CC(=O)N1CCCC1C(=O)NCCOc1c(C)cccc1C", "stereo": "stereo not drawn", "percent effect": -8.149}
{"smiles": "CCn1cc(S(=O)(=O)NCC(c2ccccc2)N2CCOCC2)c(C)n1", "stereo": "stereo not drawn", "percent effect": 5.957}
{"smiles": "Cc1cnc(Nc2cccc(C3CCCN3Cc3cn(C)nc3C)n2)s1", "stereo": "stereo not drawn", "percent effect": 11.93}
{"smiles": "O=C(O)C(F)(F)F.O=C(O)C(F)(F)F.[H][C@@]12CN(Cc3csc(C)n3)CCO[C@]1([H])CN(Cc1ccsc1)C2", "percent effect": -1.703}
{"smiles": "Cc1ccc(C(=O)N2CCCS2(=O)=O)cc1Cl", "percent effect": -27.21}
{"smiles": "O=C(O)[C@@H]1CN(C(=O)CN2CCCCCC2)C[C@H]1c1ccccc1", "percent effect": -27.1}
{"smiles": "O=C1CCC(C(=O)NCc2nncn2-c2ccccc2)CN1", "stereo": "stereo not drawn", "percent effect": 6.4}
{"smiles": "COc1ccc(C(=O)Nc2cccc(C(N)=O)c2)c(OC)n1", "percent effect": -6.526}
{"smiles": "CCN(CC1COc2ccccc2O1)C(=O)NCCCn1cncn1", "stereo": "stereo not drawn", "percent effect": 9.897}
{"smiles": "Cc1ccc(C(=O)NC2CCN(C(=O)NCc3ccccn3)CC2)o1", "percent effect": 5.068}
{"smiles": "Cc1cc(NC(=O)NCc2nccn2C)ccc1OC(C)C", "percent effect": 9.559}
{"smiles": "NC(=O)C1(c2cnccn2)CCCN1Cc1ccncc1", "stereo": "stereo not drawn", "percent effect": 6.462}
{"smiles": "OC(CN(Cc1ccccc1)Cc1ccon1)c1ccco1", "stereo": "stereo not drawn", "percent effect": 6.563}
{"smiles": "Cc1ccc(NC2CCN(C(=O)c3ccco3)CC2)nn1", "percent effect": 10.4}
{"smiles": "c1cncc(-n2cnnc2CCCN2CCOCC2)c1", "percent effect": -14.48}
{"smiles": "CCCc1cc(CNC(=O)C2CCOc3ccccc3C2)on1", "stereo": "stereo not drawn", "percent effect": 10.71}
{"smiles": "Cc1cnn(C2CCCN(C(=O)CCc3cscn3)C2)c1", "stereo": "stereo not drawn", "percent effect": 16.22}
{"smiles": "O=C(c1ccc(NC2CC2)nc1)N1CCCC(n2ccnc2)C1", "stereo": "stereo not drawn", "percent effect": -3.476}
{"smiles": "CCn1ccnc1SCCn1cnc2ccsc2c1=O", "percent effect": -24.69}
{"smiles": "Cc1nn(C)c(C)c1-c1cnc(C2CCCN(S(C)(=O)=O)C2)cn1", "stereo": "stereo not drawn", "percent effect": "29.14 & -4.25 & -7.636"}
{"smiles": "Cc1ccc(-c2cn[nH]c2C2CCCN(c3nccc(N)n3)C2)cc1", "stereo": "stereo not drawn", "percent effect": 0.8959}
{"smiles": "CCCc1noc(CCC(=O)N2CCCCC2Cn2cc(C)cn2)n1", "stereo": "stereo not drawn", "percent effect": 2.059}
{"smiles": "CCc1nc(C2CCCN(C(=O)CCn3ccccc3=O)C2)no1", "stereo": "stereo not drawn", "percent effect": -3.298}
{"smiles": "Cc1cc(C)n(CC2CCCCN2CCc2ccncc2)n1", "stereo": "stereo not drawn", "percent effect": 5.224}

The last 4 entries again:

| SMILES | percent effect |
|---|---|
| `Cc1ccc(-c2cn[nH]c2C2CCCN(c3nccc(N)n3)C2)cc1` (stereo not drawn) | 0.8959 |
| `CCCc1noc(CCC(=O)N2CCCCC2Cn2cc(C)cn2)n1` (stereo not drawn) | 2.059 |
| `CCc1nc(C2CCCN(C(=O)CCn3ccccc3=O)C2)no1` (stereo not drawn) | -3.298 |
| `Cc1cc(C)n(CC2CCCCN2CCc2ccncc2)n1` (stereo not drawn) | 5.224 |

Data taken from ChEMBL document CHEMBL3988442, “University of Dundee, Small-Polar-MMV Screening Library” (2021).